{
  "source": "ChEMBL document CHEMBL4689842",
  "about": "“EUbOPEN Chemogenomics Library wave 1” (2021)",
  "tested_on": "HEK-293T",
  "assay": "Multiplex assay against HEK293T",
  "format": "toxicity, cell-based",
  "conditions": "human",
  "procedure,_shortened": "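Cells were classed with CellPathfinder machine-learning gating, first as Hoechst high-intensity objects or normal cells, then (normal cells) as healthy, pyknosed or fragmented nuclei, and finally (pyknosed cells) as mitotic or apoptotic. Staining of live cells at seeding used Hoechst33342, BioTracker Green Microtubule Cytoskeleton Dye, MitoTracker Red and Annexin V Alexa Fluor 680, with imaging on a CQ1 microscope at 37°C and 5% CO2 after compound addition. Tubulin, mitochondrial-mass and membrane-permeability phenotypes are per cents of healthy-nucleus cells.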",
  "key": {"[1]": {"conditions": "12 h, 1 µM, compound concentration 1 uM, replicate 2"}},
  "data": [
    {"compound": "NC(=O)c1ccc2nc(-c3ccc(C4(N)CCC4)cc3)c(-c3ccccc3)n2n1", "note": "[BAY-1125976]", "values": [
      {"measurement": "Population Membrane Permeable-Phenotype (%)", "setting": "0 h, 1 µM, compound concentration 1 uM, replicate 1", "result": 2, "unit": "%"},
      {"measurement": "Population Membrane Permeable-Phenotype (%)", "setting": "0 h, 1 µM, compound concentration 1 uM, replicate 2", "result": 0, "unit": "%"},
      {"measurement": "Population Membrane Permeable-Phenotype (%)", "setting": "0 h, 10 µM, compound concentration 10 uM, replicate 1", "result": 3, "unit": "%"},
      {"measurement": "Population Membrane Permeable-Phenotype (%)", "setting": "0 h, 10 µM, compound concentration 10 uM, replicate 2", "result": 0, "unit": "%"},
      {"measurement": "Population Membrane Permeable-Phenotype (%)", "setting": "12 h, 1 µM, compound concentration 1 uM, replicate 1", "result": 10, "unit": "%"},
      {"measurement": "Population Membrane Permeable-Phenotype (%)", "setting": "[1]", "result": 7, "unit": "%"},
      {"measurement": "Population Pyknosed Nuclei (%)", "setting": "[1]", "result": 7, "unit": "%"},
      {"measurement": "Population Membrane Permeable-Phenotype (%)", "setting": "12 h, 10 µM, compound concentration 10 uM, replicate 1", "result": 4, "unit": "%"},
      {"measurement": "Population Membrane Permeable-Phenotype (%)", "setting": "12 h, 10 µM, compound concentration 10 uM, replicate 2", "result": 1, "unit": "%"},
      {"measurement": "Population Membrane Permeable-Phenotype (%)", "setting": "24 h, 1 µM, compound concentration 1 uM, replicate 1", "result": 9, "unit": "%"},
      {"measurement": "Population Membrane Permeable-Phenotype (%)", "setting": "24 h, 1 µM, compound concentration 1 uM, replicate 2", "result": 10, "unit": "%"},
      {"measurement": "Population Membrane Permeable-Phenotype (%)", "setting": "24 h, 10 µM, compound concentration 10 uM, replicate 1", "result": 10, "unit": "%"},
      {"measurement": "Population Membrane Permeable-Phenotype (%)", "setting": "24 h, 10 µM, compound concentration 10 uM, replicate 2", "result": 5, "unit": "%"}
    ]}
  ]
}
